Reference: PubChem BioAssay AID188 (DTP/NCI, 2004)
Values are animals surviving of animals treated; these mice carried no tumour. Survivors were counted at the toxicity check, usually on the fifth day, unless a day is given; later deaths do not show. Schedules are NCI's codes, read here as Q, the interval in days (D) or hours (H), X, the number of doses.

Tested on: CD2F1 mice, nontumored, toxicity/survival
Assay: NCI In Vivo Anticancer Drug Screen. Data for tumor model Nontumored Animals (Toxicity Test) in CD2F1 (CDF1) mice

Measured: survivor count

CNNCc1ccc(C(=O)NC(N)=O)cc1
8 of 8: dose: 8.0 mg/kg/injection, schedule: Q03HX024 (ip), vehicle: saline | dose: 16.0 mg/kg/injection, schedule: Q01DX005 (iv), vehicle: saline | dose: 16.0 mg/kg/injection, schedule: Q03HX008 (ip), vehicle: saline | dose: 16.0 mg/kg/injection, schedule: Q03HX016 (ip), vehicle: saline | dose: 16.0 mg/kg/injection, schedule: Q03HX024 (ip), vehicle: saline | dose: 32.0 mg/kg/injection, schedule: Q01DX005 (iv), vehicle: saline | dose: 32.0 mg/kg/injection, schedule: Q01DX008 (ip), vehicle: saline | dose: 32.0 mg/kg/injection, schedule: Q03HX008 (ip), vehicle: saline | dose: 32.0 mg/kg/injection, schedule: Q03HX016 (ip), vehicle: saline | dose: 32.0 mg/kg/injection, schedule: Q03HX024 (ip), vehicle: saline | dose: 64.0 mg/kg/injection, schedule: Q01DX005 (iv), vehicle: saline | dose: 64.0 mg/kg/injection, schedule: Q01DX008 (ip), vehicle: saline | dose: 64.0 mg/kg/injection, schedule: Q01DX009 (oral), vehicle: saline | dose: 64.0 mg/kg/injection, schedule: Q03HX008 (ip), vehicle: saline | dose: 64.0 mg/kg/injection, schedule: Q03HX016 (ip), vehicle: saline | dose: 64.0 mg/kg/injection, schedule: Q03HX024 (ip), vehicle: saline | dose: 64.0 mg/kg/injection, schedule: Q04DX003 (ip), vehicle: saline | dose: 128.0 mg/kg/injection, schedule: Q01DX001 (ip), vehicle: saline | dose: 128.0 mg/kg/injection, schedule: Q01DX001 (iv), vehicle: saline | dose: 128.0 mg/kg/injection, schedule: Q01DX001 (oral), vehicle: saline | dose: 128.0 mg/kg/injection, schedule: Q01DX005 (iv), vehicle: saline | dose: 128.0 mg/kg/injection, schedule: Q01DX008 (ip), vehicle: saline | dose: 128.0 mg/kg/injection, schedule: Q03HX008 (ip), vehicle: saline | dose: 128.0 mg/kg/injection, schedule: Q03HX016 (ip), vehicle: saline | dose: 128.0 mg/kg/injection, schedule: Q04DX003 (ip), vehicle: saline | dose: 128.0 mg/kg/injection, schedule: Q08DX002 (ip), vehicle: saline | dose: 256.0 mg/kg/injection, schedule: Q01DX001 (ip), vehicle: saline | dose: 256.0 mg/kg/injection, schedule: Q01DX001 (iv), vehicle: saline | dose: 256.0 mg/kg/injection, schedule: Q01DX001 (oral), vehicle: saline | dose: 256.0 mg/kg/injection, schedule: Q01DX005 (iv), vehicle: saline | dose: 256.0 mg/kg/injection, schedule: Q01DX009 (oral), vehicle: saline | dose: 256.0 mg/kg/injection, schedule: Q04DX003 (ip), vehicle: saline | dose: 256.0 mg/kg/injection, schedule: Q08DX002 (ip), vehicle: saline | dose: 512.0 mg/kg/injection, schedule: Q01DX001 (ip), vehicle: saline | dose: 512.0 mg/kg/injection, schedule: Q01DX001 (iv), vehicle: saline | dose: 512.0 mg/kg/injection, schedule: Q01DX001 (oral), vehicle: saline | dose: 512.0 mg/kg/injection, schedule: Q04DX003 (ip), vehicle: saline
6 of 8: dose: 256.0 mg/kg/injection, schedule: Q01DX008 (ip), vehicle: saline
7 of 8: dose: 128.0 mg/kg/injection, schedule: Q01DX009 (oral), vehicle: saline | dose: 512.0 mg/kg/injection, schedule: Q01DX009 (oral), vehicle: saline | dose: 512.0 mg/kg/injection, schedule: Q08DX002 (ip), vehicle: saline
3 of 8: dose: 512.0 mg/kg/injection, schedule: Q01DX008 (ip), vehicle: saline | dose: 1024.0 mg/kg/injection, schedule: Q01DX001 (oral), vehicle: saline
1 of 8: dose: 1024.0 mg/kg/injection, schedule: Q08DX002 (ip), vehicle: saline
0 of 8: dose: 1024.0 mg/kg/injection, schedule: Q01DX001 (ip), vehicle: saline | dose: 1024.0 mg/kg/injection, schedule: Q01DX001 (iv), vehicle: saline

OCN(CO)c1nc(CCC(Cl)(Cl)Cl)nc(N(CO)CO)n1
2 of 2: dose: 1.0 mg/kg/injection, schedule: Q01DX001 (ip), vehicle: distilled water + Tween-80 | dose: 10.0 mg/kg/injection, schedule: Q01DX001 (ip), vehicle: distilled water + Tween-80 | dose: 100.0 mg/kg/injection, schedule: Q01DX001 (ip), vehicle: distilled water + Tween-80
